Assay results as given in PubChem BioAssay AID1347426 (Functional Genomics Laboratory (NCATS/FGL), 2020).
Screen size: about 31,000 sequences; about 1,400 (4.5%) were called active.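 The calls were made as follows: active = median seed-adjusted z-score above 1 or below -1; inactive = the rest.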 The list shows a part of the results.

Experiment: Novel Modifiers of Survival Motor Neuron (SMN) Protein: Gene Identification via Genome-wide siRNA Screen;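 also: luminescence tracks full-length SMN protein made from the SMN2 reporter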
Details: HEK293T SMN2-luciferase reporter, siRNA knockdown, 72 h; actives lie on both sides
Method in brief: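 siRNA screen, 10418 genes ×3 siRNAs; 1 pmol/well, lipid reverse transfection into HEK293T SMN2-luc reporter line. 72 h, 37 °C, 5% CO2; ONE-Glo readout. Data: neg-ctrl normalized, log10, MAD; hit = MAD >1.0 or < -1.0.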

Question: For GGGAUUACUCCUUCAAUGATT against GRIN2D, which median seed-adjusted z-score is on record?
Answer: inactive: -0.135

Question: With GAACAUAAGCGACCGCUUUTT against SLC7A7 as the sequence, how does the median seed-adjusted z-score read?
Answer: inactive: 0.209

Question: With GCACUUACACUCUGUUUAATT against FGF13 as the sequence, how does the median seed-adjusted z-score read?
Answer: inactive: 0.875

Question: With AAGUCUUAUUGCUUGUACATT against BZRPL1 as the sequence, how does the median seed-adjusted z-score read?
Answer: inactive: 0.0787

Question: Which median seed-adjusted z-score does the source give for CUUGCAAUGUCGAAGCUUATT against CDH8 here?
Answer: inactive: 0.169

Question: Which median seed-adjusted z-score does the source give for ACAGAAUAAUGUACAAGAATT against POLR2K here?
Answer: active: -3.72

Question: Which median seed-adjusted z-score does the source give for GAAUCGAAAAAGAAGUGAATT against GIPC2 here?
Answer: inactive: -0.0367

Question: Which median seed-adjusted z-score does the source give for GGAAAGAGUUCAGUCGGAATT against ZNF671 here?
Answer: inactive: -0.0551

Question: Which median seed-adjusted z-score does the source give for GCCUUUAAGCACUAAUGAATT against CST8 here?
Answer: inactive: -0.0126

Question: Which median seed-adjusted z-score does the source give for GGAAGGCAAUCAGUGGGUATT against VRK2 here?
Answer: inactive: -0.183

Question: With GCUUGGAUGUGAAUCAGGATT against S100A13 as the sequence, how does the median seed-adjusted z-score read?
Answer: inactive: 0.153

Question: For GAGGAGUUCUCAGAAAUCATT against SLC16A2, which median seed-adjusted z-score is on record?
Answer: inactive: -0.302

Question: For CCAAGGAACCUGACAACCATT against GGT1, which median seed-adjusted z-score is on record?
Answer: inactive: -0.0421

Question: Which median seed-adjusted z-score does the source give for CGACAUUGAUUAUAGCUUATT against LBP here?
Answer: inactive: -0.207

Question: With GGAUCUCACAGGUUCCGUUTT against LARS2 as the sequence, how does the median seed-adjusted z-score read?
Answer: inactive: 0.25

Question: For GGCCCAUCACCAUAUCUGATT against RNF216, which median seed-adjusted z-score is on record?
Answer: inactive: -0.246

Question: For GGAACUUACUACAACUCCATT against TMPRSS6, which median seed-adjusted z-score is on record?
Answer: active: 1.29

Question: For GGACAUGAACCUUAACGAATT against DIAPH2, which median seed-adjusted z-score is on record?
Answer: inactive: -0.0149

Question: Which median seed-adjusted z-score does the source give for GGAUGUGGGUAAAUCCCAATT against FOXR1 here?
Answer: inactive: -0.153

Question: Which median seed-adjusted z-score does the source give for GCACUGAACCUUUGAUCUCTT against KRTAP23-1 here?
Answer: inactive: 0.647

Question: Which median seed-adjusted z-score does the source give for GUAAAAUGGUUCAAUGUAATT against YBX1 here?
Answer: inactive: -0.0115

Question: With CCACGAAAGGGAAUCUUAATT against SALL1 as the sequence, how does the median seed-adjusted z-score read?
Answer: inactive: -0.526

Question: For GCCUGUGAAGUUUACCAUATT against TMEM87B, which median seed-adjusted z-score is on record?
Answer: inactive: -0.51

Question: For GCAUCAACUUUCCCGGUCATT against LTBP3, which median seed-adjusted z-score is on record?
Answer: inactive: -0.0236

Question: With CCAACAUCGAGUCCCUCAATT against SLC29A3 as the sequence, how does the median seed-adjusted z-score read?
Answer: inactive: -0.0626

Question: With CAGACAGAGUCAAGCGGAATT against DIO1 as the sequence, how does the median seed-adjusted z-score read?
Answer: inactive: 0.0467

Question: Which median seed-adjusted z-score does the source give for CUCUCAGUAUGACAAGGAATT against SPOCK3 here?
Answer: inactive: 0.329

Question: With GCGAGGCUCCUGUUUAAUATT against DCTD as the sequence, how does the median seed-adjusted z-score read?
Answer: inactive: 0

Question: Which median seed-adjusted z-score does the source give for GGUUUCAUCCUGGUUUAUATT against RAP2C here?
Answer: inactive: 0.443
